# From PubChem BioAssay AID540276 (National Center for Advancing Translational Sciences (NCATS), 2011)
# Several values for one entry are separate records, joined by “and”; a condition that tells them apart may be missing. Identical values can stand only once. Out of some 300,000 compounds screened, about 5,400 (1.8%) were called active. This list was built around the results that the source calls inconclusive (neither active nor inactive); the mix of calls is not that of the screen. The call rests on the fitted dose curve; tested in HEK293 cells. Potencies of inconclusive entries are doubtful fits and often do not repeat. A structure can be active in one record and inactive in another.
# Test: qHTS for inhibitors of binding or entry into cells for Marburg Virus
# Details: Marburg virus pseudotyped entry inhibition, cell reporter; activity change, negative = inhibition: at 37.8 µM (top of the series) unless noted
# On the % scale 0 is the no-effect control and ±100 the full control effect; potency means the concentration at half of the fitted maximal effect.
Structure (SMILES),"activity change, negative = inhibition",Potency
Cc1ccc(CNC(=O)c2ccc(N3CCCC3=O)cc2)cc1,inactive: 8.44%,
C/C(CC(=O)NCc1ccco1)=N\NC(=O)COc1ccc(C)cc1,,"inconclusive: 6.31 µM [activator, full curve, poor fit]"
Cc1cccc(NC(=O)c2sc(-n3nc(C)c(CCC(C)C)c3C)nc2C)c1C,inactive: 2.05% [at 46.1 µM],
CC1(c2ccccc2)CC(C)(C)N(C(=O)c2cc([N+](=O)[O-])cc([N+](=O)[O-])c2)c2ccccc21 (stereo not drawn),,"inconclusive: 7.31 µM [inhibitor, partial curve, poor fit]"
CNC(=O)N(O)C1N(NC(=O)Nc2ccccc2)C(=S)SC1(C)C (stereo not drawn),,"inconclusive: 35.5 µM [activator, single point]"
N#Cc1c(F)cccc1N1CCC(C#N)CC1,inactive: -23.6%,
CC1=C(C(=O)Nc2cccc(C(F)(F)F)c2)C2(CCCCC2)OC1=O,,"inconclusive: 35.5 µM [inhibitor, single point]"
CCc1cc(C(=O)N2CCCC(C(=O)c3ccc(Oc4ccccc4)cc3)C2)n(C)n1 (stereo not drawn),,active: 11.2 µM
O=C(NCCc1ccccc1)C1CCN(S(=O)(=O)N2CCCCCC2)CC1,,"inconclusive: 35.5 µM [activator, single point]"
COc1ccccc1NC(=O)N(Cc1ccco1)Cc1cc2ccc(C)c(C)c2[nH]c1=O,,"inconclusive: 1 µM [inhibitor, partial curve, poor fit]"
O=C(O)CCC(=O)NNC(=O)c1cccc(Cl)c1,inactive: -1.1%,
CCC1CCCCN1C(=O)c1cc(COc2ccc3ncccc3c2)on1 (stereo not drawn),,"inconclusive: 1.12 µM [inhibitor, full curve, poor fit]"
N/C(=N\OC(=O)/C=C/c1ccccc1)c1ccccn1,,active: 7.94 µM
C=CCOc1cccc(C(=O)N2CCCC(Nc3ccc(F)cc3)C2)c1 (stereo not drawn),,"inconclusive: 0.794 µM [activator, single point]"
COc1ccc(OC)c(C2C3=C(N=c4s/c(=C\c5cccc(O)c5)c(=O)n42)c2ccccc2CC3)c1 (stereo not drawn),,"inconclusive: 20 µM [inhibitor, single point]"
O=[N+]([O-])c1ccc(N2CCCC2)cc1NC1CC1,,"inconclusive: 0.398 µM [activator, partial curve, poor fit]"
CSc1nnc(CCCCCNC(=O)OC(C)(C)C)o1,inactive: -9.32%,
COCc1nnc(NC(=O)c2cc3ccccc3o2)s1,,"inconclusive: 12.6 µM [activator, partial curve, poor fit]"
CC(OC(=O)Cc1ccsc1)C(=O)Nc1ccc(C(N)=O)cc1 (stereo not drawn),,"inconclusive: 35.5 µM [inhibitor, single point]"
COc1ccc(S(=O)(=O)N2c3ccccc3OCC2C)cc1 (stereo not drawn),inactive: -19% [at 46.1 µM],
CN1c2ccccc2N(C)C1(C)c1ccccc1,,"inconclusive: 29.1 µM [inhibitor, single point]"
Cc1ccc(CN2CCN(C3CCOCC3)CC2CCO)cc1 (stereo not drawn),inactive: 16.7% [at 46.1 µM],
CC(CCc1ccccc1)NC(=O)Cn1cccc1C(=O)c1ccccc1 (stereo not drawn),,"inconclusive: 3.16 µM [inhibitor, partial curve, poor fit]"

Structure (SMILES),"activity change, negative = inhibition",Potency
CCOC(=O)c1c(NC(=O)c2ccccc2)sc2c1CCc1ccccc1-2,,"inconclusive: 12.6 µM [inhibitor, partial curve, poor fit]"
O=C(Nc1ccc(F)c(F)c1)NC1CCCCC1,,"inconclusive: 4.61 µM [activator, partial curve, poor fit]"
CCN(C(=O)COC(=O)/C=C/c1cccc(Br)c1)C1CCS(=O)(=O)C1 (stereo not drawn),,"inconclusive: 35.5 µM [inhibitor, single point]"
O=C(COC(=O)c1cccc(N2C(=O)C3CC=CCC3C2=O)c1)c1ccccc1 (stereo not drawn),,"inconclusive: 3.98 µM [inhibitor, partial curve, poor fit]"
CCOc1ccc(S(=O)(=O)N/N=C2/CCCC(=O)C2)cc1,,"inconclusive: 0.1 µM [activator, full curve, poor fit]"
COC(=O)c1ccc2nc(-c3ccc4c(c3)OCO4)cn2c1,,"inconclusive: 3.16 µM [inhibitor, single point]"
CCn1c(SCC(=O)N2CCN(c3cccc(Cl)c3)CC2)nc2ccccc2c1=O,,"inconclusive: 3.98 µM [inhibitor, full curve, poor fit]"
COC(=O)C/C=C/[C@@H](C)[C@@H](/C=N/OC[C@H]1O[C@H](c2ccccc2)C=C[C@@H]1Oc1ccc(OC)cc1)OC,,"inconclusive: 1.64 µM [inhibitor, full curve, poor fit]"
O=C(NNC(=O)c1cc(-c2cccnc2)nc2ccccc12)Nc1ccc(Cl)cc1,,"inconclusive: 35.5 µM [inhibitor, single point]"
O=C(N/N=C/c1ccc(OC(=O)c2ccc(Br)cc2)cc1)c1ccncc1,inactive: 20.5% [at 46.1 µM],
Cc1nn(Cc2ccccc2)c(C)c1C=C1C(=O)NC(=O)NC1=O,,"inconclusive: 18.4 µM [inhibitor, single point]"
O=C(CSc1nnc(Cc2ccccc2)o1)NCCc1ccccc1,inactive: 2.35%,
O=C(CN1C(=O)c2ccccc2S1(=O)=O)c1ccccc1F,,"inconclusive: 3.55 µM [inhibitor, partial curve, poor fit]"
Cc1ccc(NC(=S)N/N=C/c2ccc([N+](=O)[O-])s2)cc1,,"inconclusive: 4.47 µM [inhibitor, full curve]"
Cn1c(C(=O)N2CCc3ccccc3C2)cc2oc3ccccc3c21,,"inconclusive: 35.5 µM [inhibitor, single point]"
COc1cccc(OC)c1NC(=O)Cn1nc(C)c2ccccc2c1=O,,"inconclusive: 0.0891 µM [inhibitor, full curve, poor fit]"
O=C(NCCN1CCC(Cc2ccccc2)CC1)C1CCCN(S(=O)(=O)c2cnc[nH]2)C1 (stereo not drawn),inactive: -1.22%,
CCc1nc(SCc2ccc([N+](=O)[O-])cc2)n[nH]1,inactive: 6.17%,
CN(CC(=O)Nc1ccc(Cl)c(C(F)(F)F)c1)C(=O)c1ccc(OCC2CCCO2)cc1 (stereo not drawn),,"inconclusive: 22.4 µM [inhibitor, single point]"
COc1cc2ccccc2cc1C(=O)O,inactive: 8.89%,
COCCn1nnnc1C(c1cccs1)N1CCN(c2cc(C)ccc2C)CC1 (stereo not drawn),,inactive and active: 16.4 µM
CC(=O)OCn1ncc(N2CCOCC2)c(Br)c1=O,inactive: -14.8% [at 46.1 µM],
Cc1ccc(Nc2nc(Nc3ccc(C)c(C)c3)nc(N3CCOCC3)n2)cc1C,,"inconclusive: 1.41 µM [inhibitor, full curve, poor fit]"

Structure (SMILES),"activity change, negative = inhibition",Potency
CC(C=CC1=C(C)CCCC1(C)C)=CC=CC(C)=CC(=O)Nc1ccc(O)cc1,,"inconclusive: 0.02 µM [inhibitor, full curve, poor fit]"
CCCN1CCC(N(C)CCc2ccc(OC)c(OC)c2)CC1,,"inconclusive: 14.6 µM [inhibitor, partial curve]"
COc1ccc(-c2nc3ccc(C)cn3c2Nc2ccc3c(c2)OCO3)cc1,,"inconclusive: 35.5 µM [activator, single point]"
O=C(Nc1ccc(OC(F)(F)F)cc1)c1ccc2nccnc2c1,,"inconclusive: 25.1 µM [inhibitor, partial curve, poor fit]"
O=C(Nc1cccc(-c2cn3cccnc3n2)c1)Nc1ccccc1F,,"inconclusive: 35.5 µM [inhibitor, single point]"
Oc1ccc(-c2cnc(-c3ccc(O)cc3)nc2)cc1,,active: 1.12 µM
COc1ccc2cc3c(N)nn(C(=O)c4ccc(Cl)c([N+](=O)[O-])c4)c3nc2c1,,"inconclusive: 2.59 µM [inhibitor, partial curve, poor fit]"
CC(C)OC(=O)[C@@H]1CC[C@H](C)[C@@H](CCC[C@@H]2CC=C[C@H](CC#N)O2)O1,,inactive
CCc1ccc(CN2CCC(n3nccc3NC(=O)c3ccccc3Cl)CC2)cc1,,"inconclusive: 35.5 µM [inhibitor, single point]"
Cc1ccc(Nc2nc(N3CCOCC3)nc(N3CCOCC3)n2)cc1,,active: 1.16 µM
CCCCSCCCNC(=O)c1cn(C)c2ccc(S(=O)(=O)N3CCCC3)cc2c1=O,,inactive
Cc1cc(C)cc(OCC(=O)N(Cc2ccc(Cl)cc2)CC2CCCO2)c1 (stereo not drawn),,"inconclusive: 7.08 µM [inhibitor, partial curve, poor fit]"
CCOc1ccc(C(=O)Nc2ccc(NC(=S)NC(=O)CC)cc2)cc1Cl,inactive: 14.2%,
O=C(NCc1cccs1)C1CC(O)CN1C(=O)Nc1ccccc1 (stereo not drawn),,"inconclusive: 15.8 µM [activator, partial curve, poor fit]"
COc1ccc(N2CCN(CCNC(=O)Nc3ccc(Cl)cc3)CC2)cc1,inactive: -22.9%,
c1cc2c(cc1Cn1cnnn1)OCO2,,"inconclusive: 1.41 µM [inhibitor, partial curve, poor fit]"
COc1cccc(Oc2nccc(N(C)C)c2C#N)c1,,"inconclusive: 14.1 µM [activator, single point]"
Nc1ccc(Sc2ccc(N)cc2)cc1,,"inconclusive: 12.6 µM [activator, single point]"
CC1CC(C)CN(CCCNC(=O)CN2C(=O)c3cccnc3Oc3ccc(Cl)cc32)C1 (stereo not drawn),,"inconclusive: 35.5 µM [inhibitor, single point]"
Cc1ccc(C(=O)NCC(=O)O)s1,,"inconclusive: 35.5 µM [activator, single point]"
O=C(Cc1ccc(S(=O)(=O)N2CCOCC2)s1)Nc1ccc(Br)c(C(F)(F)F)c1,,"inconclusive: 35.5 µM [inhibitor, single point]"
CCN(CC)c1ccc(-c2n[nH]c(=S)n2-c2ccccc2)cc1,inactive: -5.65% [at 46.1 µM],
